This is an account of results in PubChem BioAssay AID192 (DTP/NCI, 2004).

The list is a part of this screen's results and no random one: it gathers tests that were run many times, whatever their T/C, doses with no T/C, and many T/C values between a quarter and a half above the control. Other doses and runs of a compound stand elsewhere. T/C is the treated group as % of the vehicle group. Some doses have a count of surviving animals in place of a T/C: the source files T/C as zero there, which appears to mark a toxic dose or a test without result, not a measured value. Some doses without a T/C left all or most animals alive at the check, yet need not have been tolerated: the source hardly ever lists a survival T/C far under the control, and the zero likely stands for such cases as well. Survivors were counted at the toxicity check, usually on the fifth day, unless a day is given; later deaths do not show. Schedule codes are those of the source, read here as Q, the interval in days (D) or hours (H), X, the number of doses. Some entries hold several experiments; their values stand side by side, smallest first. Some structures stand for samples that the source files as different forms (salt, stereo form or complex); doses refer to the form tested. For survival time, the PubChem record calls one and a half times the control and up active, and a quarter to a half above the control has no call in these data; cut-offs in other NCI protocols can differ.

For the experiment, the system named is BDF1 mice, B16 melanoma ip, median survival T/C. The experiment is described as follows: NCI In Vivo Anticancer Drug Screen. Data for tumor model B16 Melanoma (intraperitoneal) in B6D2F1 (BDF1) mice. The following applies: T/C endpoint: median survival time, higher T/C = longer survival. As for the experimental part: The antitumor activity of compounds was measured in mice bearing transplantable tumors. Survival or tumor size were measured and the results are expressed as the measurement made in the treated group (T) divided by the measurement made in the vehicle treated control group (C). The tumor model used in this assay is B16 Melanoma (intraperitoneal) in B6D2F1 (BDF1) mice

Setting [1] is: dose: 100.0 mg/kg/injection, schedule: Q01DX009 (ip), vehicle: saline.
The mark [2] stands for this setting: dose: 100.0 mg/kg/injection, schedule: Q04DX003 (ip), vehicle: saline.
The mark [3] stands for this setting: dose: 200.0 mg/kg/injection, schedule: Q01DX009 (ip), vehicle: saline.
The mark [4] stands for this setting: dose: 400.0 mg/kg/injection, schedule: Q01DX009 (ip), vehicle: saline.
[5] abbreviates: dose: 200.0 mg/kg/injection, schedule: Q01DX009 (ip), vehicle: saline with Tween-80.
[6] abbreviates: dose: 400.0 mg/kg/injection, schedule: Q01DX009 (ip), vehicle: saline with Tween-80.
Where [7] appears, read: dose: 100.0 mg/kg/injection, schedule: Q01DX009 (ip), vehicle: Klucel (hydroxypropylcellulose) (HPC).
Setting [8] is: dose: 25.0 mg/kg/injection, schedule: Q01DX009 (ip), vehicle: saline.
[9] abbreviates: dose: 50.0 mg/kg/injection, schedule: Q01DX009 (ip), vehicle: saline.
The mark [10] stands for this setting: dose: 6.25 mg/kg/injection, schedule: Q01DX009 (ip), vehicle: water.

As for `CC[N+](CC)(CC)CC`, the survivor count (dose: 6.0 mg/kg/injection, schedule: Q01DX009 (ip), vehicle: saline with Tween-80) was 10 of 10; the survivor count (dose: 12.0 mg/kg/injection, schedule: Q01DX009 (ip), vehicle: saline with Tween-80) is 10 of 10; the survivor count under setting [1] is on record as 0 of 10; the survivor count under setting [2] is 3 of 10; the survivor count under setting [3] is recorded as 0 of 10; the survivor count under setting [4] is 0 of 10.
In the case of `Cc1cc2cc3cc(C)c(N)cc3nc2cc1N`, the T/C by setting is: (dose: 3.12 mg/kg/injection, schedule: Q01DX009 (ip), vehicle: saline with Tween-80) 136 % of control; (dose: 6.25 mg/kg/injection, schedule: Q01DX009 (ip), vehicle: saline with Tween-80) 136 % of control; (dose: 12.5 mg/kg/injection, schedule: Q01DX009 (ip), vehicle: saline with Tween-80) 130 and 145 % of control; (dose: 25.0 mg/kg/injection, schedule: Q01DX009 (ip), vehicle: saline with Tween-80) 141 % of control. Besides, the survivor count is 8 of 10 and 10 of 10 (dose: 50.0 mg/kg/injection, schedule: Q01DX009 (ip), vehicle: saline with Tween-80); 6 of 10 (dose: 100.0 mg/kg/injection, schedule: Q01DX009 (ip), vehicle: saline with Tween-80).
On to `CN(C)c1c(-c2ccccc2)cc(-c2ccccc2)[nH]c1=O`, for which the survivor count by setting is: under setting [5], 9 of 10; under setting [6], 10 of 10.
Take `O=C(O)c1ccc(Nc2c3ccccc3nc3ccccc23)cc1`: the T/C is, setting by setting: (dose: 19.0 mg/kg/injection, schedule: Q01DX009 (ip), vehicle: saline with Tween-80) 129 % of control; (dose: 29.0 mg/kg/injection, schedule: Q01DX009 (ip), vehicle: saline with Tween-80) 145 % of control. Also, the survivor count is, setting by setting: (dose: 63.0 mg/kg/injection, schedule: Q01DX009 (ip), vehicle: other) 10 of 10; (dose: 66.0 mg/kg/injection, schedule: Q01DX009 (ip), vehicle: Klucel (hydroxypropylcellulose) (HPC)) 10 of 10; under setting [7], 10 of 10; (dose: 150.0 mg/kg/injection, schedule: Q01DX009 (ip), vehicle: Klucel (hydroxypropylcellulose) (HPC)) 10 of 10.
With `COc1cccc2c1C(=O)c1c(O)c3c(c(O)c1C2=O)C[C@@](O)(/C(C)=N\NC(=O)CO)C[C@@H]3OC1CC(N)C(O)C(C)O1` (some centres not stated), the T/C (dose: 0.78 mg/kg/injection, schedule: Q01DX009 (ip), vehicle: saline) is 136 % of control. The survivor count reads like this: under setting [8], 7 of 10 and 6 of 6; (dose: 40.0 mg/kg/injection, schedule: Q01DX001 (ip), vehicle: water) 10 of 10; under setting [9], 0 of 6.
As for `CCN(CC)CCCN1c2ccccc2Sc2ccc(Cl)cc21`, the survivor count was 0 of 10 and 10 of 10 under setting [8]; 0 of 10 and 10 of 10 under setting [9]; 0 of 10 and 10 of 10 under setting [1]; 0 of 10 and 10 of 10 under setting [3]; 0 of 10 and 10 of 10 under setting [4].
Consider `C=C1C(=O)OC2CC(C)C3C=CC(=O)C3CC12` (configuration not stated), for which the survivor count runs as follows: (dose: 4.69 mg/kg/injection, schedule: Q01DX009 (ip), vehicle: Klucel (hydroxypropylcellulose) (HPC)) 8 of 10; (dose: 9.38 mg/kg/injection, schedule: Q01DX009 (ip), vehicle: Klucel (hydroxypropylcellulose) (HPC)) 0 of 10; (dose: 18.75 mg/kg/injection, schedule: Q01DX009 (ip), vehicle: Klucel (hydroxypropylcellulose) (HPC)) 0 of 10.
As for `CC(c1c[nH]c2ccccc12)N1CCCCC1` (configuration not stated), the survivor count under setting [7] is given as 3 of 10.
Consider `COc1ccc(NC(=O)Nc2ccc(Br)cc2)cc1`, for which the survivor count under setting [5] was 10 of 10 and the survivor count under setting [6] is listed as 10 of 10.
As for `COC(CBr)c1ccccc1` (configuration not stated), the survivor count was 10 of 10 (dose: 25.0 mg/kg/injection, schedule: Q01DX009 (ip), vehicle: Klucel (hydroxypropylcellulose) (HPC)); 10 of 10 (dose: 50.0 mg/kg/injection, schedule: Q01DX009 (ip), vehicle: Klucel (hydroxypropylcellulose) (HPC)); 7 of 10 under setting [7].
Regarding `NC(=O)CCC(N)C(=O)O.[Cl-].[Cl-].[Cl-].[Cl-].[Pt+2]` (configuration not stated), under setting [10], the T/C is 125 % of control.
Turning to `COC(=O)C12Oc3ccc(-c4ccc5c(c4O)C(O)=C4C(=O)CC(C)C(O)C4(C(=O)OC)O5)c(O)c3C(O)=C1C(=O)CC(C)C2O` (configuration not stated), the survivor count (dose: 2.5 mg/kg/injection, schedule: Q01DX009 (ip), vehicle: saline with Tween-80) is 10 of 10; the survivor count (dose: 5.0 mg/kg/injection, schedule: Q01DX009 (ip), vehicle: saline with Tween-80) is 10 of 10; the survivor count (dose: 10.0 mg/kg/injection, schedule: Q01DX009 (ip), vehicle: saline with Tween-80) is 9 of 10.
In the case of `COc1cccc2c1C(=O)c1c(O)c3c(c(O)c1C2=O)C[C@@](O)(C(C)O)C[C@@H]3OC1CC(N2CCOCC2)C(O)C(C)O1` (some centres not stated), the survivor count (dose: 500.0 micrograms/kg/injection, schedule: Q01DX001 (ip), vehicle: water) was 2 of 10.
Consider `Oc1cc(N2CC2)c(O)cc1N1CC1`, for which the T/C reads like this: (dose: 0.22 mg/kg/injection, schedule: Q01DX009 (ip), vehicle: saline) 134 % of control; (dose: 0.44 mg/kg/injection, schedule: Q01DX009 (ip), vehicle: saline) 136 % of control. The survivor count (dose: 1.0 mg/kg/injection, schedule: Q01DX009 (ip), vehicle: saline) is 10 of 10.
Consider `C1CCc2nnnn2CC1`, for which the survivor count runs as follows: under setting [9], 10 of 10; under setting [2], 1 of 10; (dose: 200.0 mg/kg/injection, schedule: Q04DX003 (ip), vehicle: saline) 0 of 10; (dose: 400.0 mg/kg/injection, schedule: Q04DX003 (ip), vehicle: saline) 0 of 10.
For the molecule `CCN(CC)CCCC(C)NCCCCNC(C)CCCN(CC)CC` (configuration not stated), the T/C (dose: 3.13 mg/kg/injection, schedule: Q01DX009 (ip), vehicle: water) is 125 % of control; the T/C under setting [10] was 133 % of control; the T/C (dose: 12.5 mg/kg/injection, schedule: Q01DX009 (ip), vehicle: water) was 125 % of control. For the same molecule, the survivor count reads like this: (dose: 18.75 mg/kg/injection, schedule: Q01DX009 (ip), vehicle: alcohol) 10 of 10; (dose: 25.0 mg/kg/injection, schedule: Q01DX009 (ip), vehicle: alcohol) 10 of 10; (dose: 37.5 mg/kg/injection, schedule: Q01DX009 (ip), vehicle: alcohol) 8 of 10; (dose: 37.5 mg/kg/injection, schedule: Q01DX009 (ip), vehicle: water) 5 of 10; (dose: 50.0 mg/kg/injection, schedule: Q01DX009 (ip), vehicle: alcohol) 1 of 10; (dose: 50.0 mg/kg/injection, schedule: Q01DX009 (ip), vehicle: water) 3 of 10.
Turning to `COC12C(COC(N)=O)C3=C(C(=O)C(C)=C(N)C3=O)N1CC1C2N1C` (configuration not stated), for the setting “dose: 8.0 mg/kg/injection, schedule: Q01DX009 (ip), vehicle: Klucel (hydroxypropylcellulose) (HPC)”, the T/C was 134 % of control. Also, the survivor count (dose: 16.0 mg/kg/injection, schedule: Q01DX009 (ip), vehicle: Klucel (hydroxypropylcellulose) (HPC)) is reported as 5 of 6.
Turning to `CCOC(=O)Cc1ccccn1`, the T/C was 130 % of control under setting [7]; 134 % of control (dose: 200.0 mg/kg/injection, schedule: Q01DX009 (ip), vehicle: Klucel (hydroxypropylcellulose) (HPC)); 134 % of control (dose: 400.0 mg/kg/injection, schedule: Q01DX009 (ip), vehicle: Klucel (hydroxypropylcellulose) (HPC)).
Take `Cc1cn(C2CC(O)C(CO)O2)c(=O)[nH]c1=O` (configuration not stated): the survivor count under setting [8] is 10 of 10, the survivor count under setting [9] is on record as 10 of 10 and the survivor count under setting [4] is 9 of 10.
